The structures appear in SMILES notation. This is one part of the list. These are further read-outs of the screen, such as a control signal, another cell line or another target. No call is given for them. The list favours compounds with an active or inconclusive main result. Potencies come from curve fits of mixed quality, noted in brackets.

The values that follow come from PubChem BioAssay AID493014 (National Center for Advancing Translational Sciences (NCATS), 2011).

This assay in a line: qHTS Assay to Find Inhibitors of Chronic Active B-Cell Receptor Signaling. The conditions noted are these: ABC-DLBCL IkBa-CBG/CBR reporter, luminescence ratio (green luciferase fused to IkBa over red control in TMD8 lymphoma cells), 4 h. A digest of the protocol:
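Compounds up to 46 uM were incubated four hours with TMD8 cells whose green CBG68 luciferase is fused to IkappaBalpha; red CBR luminescence normalised the signal, and concentration-effect curves were fitted to fusion, red and ratio data.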
On the technique in general: In qHTS, concentration-response curves come from the screen itself.

The mark [1] stands for this setting: measured here: CBR red luminescence, cell number.
The mark [2] stands for this setting: measured here: IkBa-CBG green luminescence.

Take `CCOC(=O)C(NC(=O)c1cccnc1)(Nc1cccc(C)n1)C(F)(F)F` (configuration not stated): the AC50 – broadly, the concentration giving half of the maximal activity seen – under setting [1] is 20.6 µM [falling, single point]. On the same count and under the same terms, as for `COc1cccc(N2CCN(c3ccc([N+](=O)[O-])cn3)CC2)c1`, the figure is 17.8 µM [rising, partial curve, poor fit]. Same read-out and setting: to `Cc1c(C(=O)NCc2cccs2)oc2ccc(Br)cc12` belongs 0.0651 µM [rising, full curve, poor fit]. Same read-out and setting: to `O=C(N/N=C(\CC(=O)c1cccs1)C(F)(F)F)c1cccnc1` belongs 15.8 µM [falling, single point]; to `Cc1ccc(NC(=O)CCC(=O)NNS(=O)(=O)c2ccc(Cl)cc2)cc1C`, 1.12 µM [falling, full curve, poor fit]. Regarding `O=C(NCc1nnnn1-c1ccc(F)c(F)c1)c1ccc(S(=O)(=O)N2CCOCC2)cc1`, under setting [1], the half-maximal activity concentration (AC50) was 32.6 µM [falling, single point]. `Fc1cccc(Cc2noc(CN3CCOCC3)n2)c1`: the AC50 under setting [1] is 22.4 µM [rising, single point]. For `Cc1c(C(=O)OC2CCCC2)[nH]c2c1C(=O)CC(c1ccco1)C2` (configuration not stated), the AC50 under setting [1] is 7.31 µM [rising, partial curve]. On the same count and under the same terms, as for `COc1cc2c(cc1OC)CN(C(=O)CSc1n[nH]c(N)n1)CC2`, the figure is 6.51 µM [rising, single point]; as for `Cc1cccc(NC(=O)CN(C)S(=O)(=O)c2cccs2)c1`, 7.31 µM [falling, single point]. Same read-out and setting: to `Cc1cccc(C)c1NC(=O)CNC(=O)C(C)N1CCN(c2cccc(Cl)c2)CC1` (configuration not stated) belongs 1.64 µM [rising, full curve, poor fit]; to `COc1ccc(OC)c(CN2CCN(C(=O)CCC(=O)c3cccs3)CC2)c1`, 4.11 µM [rising, full curve].

With `Cc1ccc(C(=O)CSC2=C(C#N)C(c3ccco3)C3=C(CCCC3=O)N2)cc1` (configuration not stated), under setting [1], the AC50 is 7.08 µM [falling, partial curve, poor fit].

With `O=C(NC(c1ccc(Cl)cc1)c1c(O)ccc2ccccc12)c1ccccc1` (configuration not stated), the half-maximal activity concentration (AC50) is, setting by setting: under setting [1], 29.1 µM [falling, single point]; under setting [2], 20.6 µM [rising, partial curve, poor fit]. As for `O=C(NC1CCCC1)c1cccc2c1C(=O)c1ccc(N3CCCCC3)cc1S2(=O)=O`, under setting [1], the AC50 is 1.16 µM [falling, full curve]. On the same count and under the same terms, as for `COc1ccc(CCn2c(-c3ccccc3)nc3c(c(=O)c4ccccc4n3C)c2=O)cc1`, the figure is 25.9 µM [falling, single point].

Consider `Cc1sc2ncn(-c3ccccc3)c(=O)c2c1C`, for which the AC50 under setting [1] was 4.47 µM [rising, full curve, poor fit].

For `O=C(Nc1cccc(Cl)c1)c1cnc[nH]1`, the AC50 under setting [1] was 11.2 µM [falling, partial curve, poor fit].

Regarding `COc1ccc(CCNC(=O)c2ccc(S(=O)(=O)N(C)c3ccccc3)cc2)cc1OC`, under setting [1], the AC50 is 20 µM [rising, single point]. As for `Cc1cccc(C)c1NC(=O)c1sc(N)nc1-c1ccccc1`, the AC50 under setting [1] is 35.5 µM [rising, single point]. `CCCc1cc(=O)[nH]c(SCCc2ccccc2)n1`: under setting [1], the half-maximal activity concentration (AC50) is 15.8 µM [falling, single point].

Regarding `O=C(Nc1ccccc1)c1ccc(Br)c(S(=O)(=O)N2CCCCC2)c1`, under setting [2], the AC50 was 15.8 µM [rising, partial curve, poor fit]. In the case of `Cc1cc(O)c2c(c1O)C(=O)[C@]13C(=C2O)C(=O)[C@@H]2[C@@H](O)[C@H]1[C@@H]1[C@H](O)[C@H]3C(=O)C3=C(O)c4c(O)cc(C)c(O)c4C(=O)[C@]312`, under setting [1], the half-maximal activity concentration (AC50) is 4.61 µM [falling, full curve].

Take `COc1ccc(C(=O)N/N=C/c2ccc3cccc(OCc4ccccc4)c3n2)cc1`: the AC50 under setting [1] was 7.08 µM [falling, partial curve].

Turning to `COc1ccc(-c2ccc(C#N)c(SCC(=O)Nc3sc4c(c3C#N)CCC4)n2)cc1OC`, the AC50 under setting [1] is 11.6 µM [rising, partial curve, poor fit]. As for `N#C/C(=C/c1ccc([N+](=O)[O-])cc1)C(=O)Nc1ccccc1O`, the AC50 under setting [1] is 8.2 µM [falling, partial curve, poor fit]. For the compound `Cc1ccc(-c2c(C)sc3nc[nH]c(=O)c23)cc1C`, the AC50 under setting [1] is 0.631 µM [falling, partial curve, poor fit]. As to `COc1ccccc1/C=C1\SC(=S)N(Nc2nc(C)cc(C)n2)C1=O`, under setting [1], the AC50 is 0.891 µM [falling, full curve, poor fit]. Take `COc1ccccc1-c1nnc(NC(=O)c2ccc(S(=O)(=O)N(C)CC3CCCO3)cc2)o1` (configuration not stated): the AC50 under setting [1] was 8.91 µM [falling, partial curve]. Still for that read-out and setting: as for `Cc1c(N=C2N=C(NC(=O)c3ccc(F)cc3)c3ccccc32)c(=O)n(-c2ccccc2)n1C`, the figure is 15.8 µM [rising, partial curve, poor fit]; as for `Cc1cc(-c2ccccc2)n(-c2ccccc2)n1`, 17.8 µM [rising, single point]. Still for that read-out and setting: as for `O=C(/C=C/c1cn(CC(O)CN2CCCCC2)c2ccccc12)c1cccs1` (configuration not stated), the figure is 29.1 µM [falling, single point]; as for `Cc1c(C(=S)Nc2ccccc2)cnn1-c1ccc([N+](=O)[O-])cc1`, 4.61 µM [rising, single point]. Same read-out and setting: as for `CC(=O)Nc1ccc(S(=O)(=O)Nc2nc3cc4c(cc3nc2Cl)OCCO4)cc1`, the figure is 11.2 µM [rising, single point]. In the case of `Cc1ccc(SC/C(O)=C(\C#N)c2nc3ccccc3s2)cc1`, under setting [1], the AC50 is 2.31 µM [falling, full curve]. The same measure, in the same setting: to `CCOC(=O)c1c(-c2cccs2)csc1NC(=O)CN(CC)CC` belongs 10 µM [rising, partial curve, poor fit]. With `CC(=O)Oc1c(/C=C(\C#N)C(N)=O)[nH]c2ccccc12`, the AC50 under setting [1] is 23.1 µM [falling, partial curve]. Still for that read-out and setting: as for `COc1cccc(C(=O)/C=C2\Sc3ccccc3N2C)c1`, the figure is 25.1 µM [falling, single point]. With `Cc1cc(C)nc(N/N=C/C(Cl)=C/c2ccccc2)n1`, the AC50 is, setting by setting: under setting [1], 32.6 µM [falling, single point]; under setting [2], 23.1 µM [rising, partial curve, poor fit].

Turning to `O=C(N/N=C/c1ccco1)c1ccccc1OCc1ccc(Br)cc1`, the AC50 under setting [1] was 0.411 µM [rising, partial curve, poor fit]. Same read-out and setting: as for `O=C(Nc1ccc(-c2nc3cc(Cl)ccc3o2)cc1)C1CCCO1` (configuration not stated), the figure is 1.64 µM [rising, full curve]. With `Cc1noc(C)c1CSc1nc2ccccc2c(=O)n1-c1ccccc1`, the AC50 under setting [1] was 11.2 µM [rising, partial curve] and the AC50 under setting [2] was 7.08 µM [falling, partial curve]. With `O=C1OC2(c3ccccc31)c1cc(I)c(O)c(I)c1Oc1c2cc(I)c(O)c1I`, the AC50 under setting [1] is 9.2 µM [rising, partial curve] and the AC50 under setting [2] was 11.6 µM [rising, partial curve, poor fit]. For `CC(=O)Nc1ccc2c(c1)CCCC2=O`, the AC50 under setting [1] was 31.6 µM [rising, single point]. Still for that read-out and setting: as for `CSC1=NCCN1C(=O)c1ccc(Br)o1`, the figure is 13 µM [falling, single point]; as for `Cc1ccc(N=CC2=C(O)CC(C)(C)CC2=O)nc1`, 0.517 µM [rising, full curve, poor fit]. Same read-out and setting: as for `CCOc1c(Nc2ccc(C(C)C)cc2)c(=O)c1=O`, the figure is 11.2 µM [rising, partial curve, poor fit]; as for `O=C(Cn1nc(CNc2ccc(Cl)cc2)[n+]2c1CCCCC2)c1ccc(Cl)cc1`, 2.59 µM [rising, full curve, poor fit]; as for `Cc1ccc(S(=O)(=O)N2CCN(C(=O)CN3C(=O)NC(C)(c4ccc(Cl)cc4)C3=O)CC2)c(C)c1` (configuration not stated), 1.84 µM [rising, partial curve]. On the same count and under the same terms, as for `O=C(CCNC(=O)c1ccccc1Cl)NCCC1=CCCCC1`, the figure is 18.4 µM [rising, single point]; as for `CCNc1nc(NCC)n2c(SCC(=O)Nc3cccc(F)c3)nnc2n1`, 32.6 µM [falling, single point]. Turning to `O=C(Cn1nc(C(F)F)cc1C(F)F)NNC(=S)Nc1ccc([N+](=O)[O-])cc1`, the half-maximal activity concentration (AC50) under setting [1] was 10 µM [rising, partial curve, poor fit]. Still for that read-out and setting: to `O=C(Nc1ccnc(-c2cccnc2)n1)c1ccc(Cl)c(Cl)c1` belongs 3.16 µM [rising, single point]; to `CCN(C(=O)c1cn(C)c(=O)c2cc(OC)c(OC)cc12)c1ccccc1C`, 29.1 µM [falling, single point]; to `COc1cc(SC)ccc1C(=O)Nc1ncc(C)s1`, 2.24 µM [falling, full curve, poor fit]. As to `O=C(Nc1ccccc1)c1cccc(N2C(=O)C3C4CC(C(Br)C4Br)C3C2=O)c1` (configuration not stated), the AC50 under setting [1] was 22.4 µM [falling, single point]. Regarding `COCCCn1c(C(=O)NCCN2CCOCC2)cc2c(=O)n3ccccc3nc21`, the AC50 under setting [1] is 14.1 µM [falling, partial curve]. Same read-out and setting: as for `CCOC(=O)c1ccc2c(c1)nc(SCc1cn3ccsc3n1)n2CC`, the figure is 11.2 µM [falling, partial curve, poor fit]. `COc1ccc(/C=C/c2ccncc2)cc1`: under setting [1], the AC50 was 0.631 µM [rising, full curve, poor fit]. Take `Cc1cc(N)ccc1N=Nc1c(C)n(C)n(-c2ccccc2)c1=O`: the concentration at half-maximal activity (AC50) under setting [1] is 14.6 µM [rising, single point]. Take `CS(=O)(=O)N1CCCC(C(=O)c2cccc(Cl)c2)C1` (configuration not stated): the AC50 under setting [1] is 3.16 µM [rising, partial curve, poor fit]. As for `O=C(N/N=C/c1ccccn1)c1sc2ccccc2c1Cl`, the AC50 by setting is: under setting [1], 3.16 µM [rising, full curve, poor fit]; under setting [2], 10 µM [falling, partial curve, poor fit].
